# The list shows only some results of the screen, not a fair sample: it covers a few groups of compounds. Not every dose and run of a compound is shown. T/C gives the treated animals as a percentage of the vehicle group. For survival time, the PubChem record calls one and a half times the control and up active, and a quarter to a half above the control has no call in these data; cut-offs in other NCI protocols can differ. Schedules are NCI's codes, read here as Q, the interval in days (D) or hours (H), X, the number of doses. Some entries show no survivor count and are marked so; the dose need not have been tolerated. Signs of the kind (2×) give the number of equal values in this list. Some entries were tested several times; the values are given in rising order.
# Tested on: B6C3F1 mice, ip Sarcoma M5076, median survival T/C
# Assay: NCI In Vivo Anticancer Drug Screen. Data for tumor model Sarcoma M5076 (intraperitoneal) in B6C3F1 mice
# Conditions: T/C endpoint: median survival time, schedule: Q04DX004 (ip), higher T/C = longer survival
# Description: The antitumor activity of compounds was measured in mice bearing transplantable tumors. Survival or tumor size were measured and the results are expressed as the measurement made in the treated group (T) divided by the measurement made in the vehicle treated control group (C). The tumor model used in this assay is Sarcoma M5076 (intraperitoneal) in B6C3F1 mice
SMILES,"T/C (dose: 5.0 mg/kg/injection, vehicle: saline + alcohol)","T/C (dose: 10.0 mg/kg/injection, vehicle: saline + alcohol)","T/C (dose: 20.0 mg/kg/injection, vehicle: saline + alcohol)","T/C (dose: 0.32 mg/kg/injection, vehicle: Klucel (hydroxypropylcellulose) (HPC))","T/C (dose: 0.63 mg/kg/injection, vehicle: Klucel (hydroxypropylcellulose) (HPC))","T/C (dose: 1.25 mg/kg/injection, vehicle: Klucel (hydroxypropylcellulose) (HPC))","T/C (dose: 2.5 mg/kg/injection, vehicle: Klucel (hydroxypropylcellulose) (HPC))","T/C (dose: 5.0 mg/kg/injection, vehicle: Klucel (hydroxypropylcellulose) (HPC))"
CC(O)C1/C=C/C=C/C(=O)OC2CC3OC4C5OC5(C)C(O)CC4(COC(=O)C(O)C(C)CCO1)C2(C)C31CO1 (stereo not drawn),140 % of control [survivor count not shown],117 % of control [survivor count not shown],135 % of control [survivor count not shown],,,,,
CC1=C[C@H]2O[C@@H]3C[C@H]4OC(=O)/C=C\C=C\[C@H]([C@@H](C)O)OC[C@H](O)[C@@]5(C)O[C@@H]5C(=O)OC[C@@]2(C[C@H]1O)[C@]4(C)C31CO1 (stereo partly drawn),,,,106 % of control [survivor count not shown],108 % of control [survivor count not shown],133 % of control [survivor count not shown] (2×),133 [survivor count not shown] and 142 % of control [survivor count not shown],145 % of control [survivor count not shown]

# Source: PubChem BioAssay AID292 (DTP/NCI, 2004)
